Where a chain is given by its changes, count along the chain named. These are yes or no findings as the source states them, for the method shown. Some results given as binding are weak or reduced against the parent protein; the word gives no strength.
B1: C2G4 scFv protein (scFv)
scFv: EVQLLESGGGLVQPGGSLRLSCAASGFTFSNYAMSWVRQAPGKGLEWVSGIPPDSGSKYYADSVRGRFTVSRDNSKNTLYLQMNSLRAEDTAVYYCAKNMLSFDYWGQGTLVTVSSGGGGSGGGGSGGGGSQSVLTQPPSASGTPGQRVTISCTGSSSNIGSNAVSWYQQLPGTAPKLLIYYNSKRPSGVPDRFSGSKSGTSASLAISGLRSEDEADYYCGSWDPSLNGYVFGGGTKVTVLG
B2: MS501 scFv protein (scFv)
scFv: EVQLLESGGGLVQPGGSLRLSCAASGFTFSNYAMSWVRQAPGKGLEWVSGIYPDSGSTYYADSVKGRFTISRDNSKNTLYLQMNSLRAEDTAVYYCARNIYTFDYWGQGTLVTVSSGGGGSGGGGSGGGGSQSVLTQPPSASGTPGQRVTISCSGSSSNIGSNAVSWYQQLPGTAPKLLIYYNNQRPSGVPDRFSGSKSGTSASLAISGLRSEDEADYYCGSWDSSLSGYVFGGGTKLTVLG
B3: MS503 scFv protein (scFv)
scFv: B2 scFv with G50S, D54G, S55D, R98K, I100A, Y101F, N184S, Q185H, S222T

Chains of the proteins cited; added tags and fusions are not shown. Lines headed by an entry give the natural chain unless they say otherwise; changes in a name come on top. A line that says so, or that is headed by a name, gives the form on record, which may keep a tag or linker.
recombinant human mesothelin protein (Q13421, form named): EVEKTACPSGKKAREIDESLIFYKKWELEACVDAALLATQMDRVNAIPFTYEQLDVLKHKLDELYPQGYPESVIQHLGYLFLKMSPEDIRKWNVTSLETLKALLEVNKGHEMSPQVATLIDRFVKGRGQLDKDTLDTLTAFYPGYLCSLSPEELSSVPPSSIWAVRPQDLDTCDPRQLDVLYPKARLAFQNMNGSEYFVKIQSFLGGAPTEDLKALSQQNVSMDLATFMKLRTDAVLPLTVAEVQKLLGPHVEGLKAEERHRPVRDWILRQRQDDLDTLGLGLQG

Biological target: recombinant human mesothelin protein (human) (UniProt Q13421)
Assay: ELISA: scFv coated at 200 ng/ml, 100 ng/ml recombinant human mesothelin, detection antibody and streptavidin-HRP, absorbance at 450 nm

binding, binds:
B1
B2
B3

Source: patent US20210347870A1
